Data as given in US8163758B2 (Parion Sciences, Inc., priority 2006, dated 2012).
For at least one compound, name, drawing or mass did not settle the structure.

Molecular target: T1, epithelial sodium channel (ENaC) (Canis lupus familiaris, UniProt A0A8I3MKE6+A0A8I3Q679+Q95165)
T1 construct: endogenous in cells; host or cells: primary canine bronchial epithelial cells cultured at air-liquid interface
T1 sequence (A0A8I3Q679 1-649): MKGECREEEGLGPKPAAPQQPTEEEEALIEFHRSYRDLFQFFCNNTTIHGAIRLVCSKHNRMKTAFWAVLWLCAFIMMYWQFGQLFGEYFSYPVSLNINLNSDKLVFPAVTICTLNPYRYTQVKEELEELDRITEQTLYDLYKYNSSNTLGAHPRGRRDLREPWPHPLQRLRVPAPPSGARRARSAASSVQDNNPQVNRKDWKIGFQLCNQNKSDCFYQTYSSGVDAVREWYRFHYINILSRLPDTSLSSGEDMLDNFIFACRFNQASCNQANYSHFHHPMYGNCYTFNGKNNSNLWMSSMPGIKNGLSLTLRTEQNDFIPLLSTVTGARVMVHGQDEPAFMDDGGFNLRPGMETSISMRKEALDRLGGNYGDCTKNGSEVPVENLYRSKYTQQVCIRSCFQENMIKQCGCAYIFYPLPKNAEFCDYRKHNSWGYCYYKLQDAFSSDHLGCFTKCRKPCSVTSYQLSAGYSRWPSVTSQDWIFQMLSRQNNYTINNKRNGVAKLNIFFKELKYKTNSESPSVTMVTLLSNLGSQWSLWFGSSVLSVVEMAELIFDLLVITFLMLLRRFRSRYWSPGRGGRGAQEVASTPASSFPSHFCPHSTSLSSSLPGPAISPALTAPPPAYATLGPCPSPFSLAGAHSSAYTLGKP
T1 sequence (Q95165 1-641): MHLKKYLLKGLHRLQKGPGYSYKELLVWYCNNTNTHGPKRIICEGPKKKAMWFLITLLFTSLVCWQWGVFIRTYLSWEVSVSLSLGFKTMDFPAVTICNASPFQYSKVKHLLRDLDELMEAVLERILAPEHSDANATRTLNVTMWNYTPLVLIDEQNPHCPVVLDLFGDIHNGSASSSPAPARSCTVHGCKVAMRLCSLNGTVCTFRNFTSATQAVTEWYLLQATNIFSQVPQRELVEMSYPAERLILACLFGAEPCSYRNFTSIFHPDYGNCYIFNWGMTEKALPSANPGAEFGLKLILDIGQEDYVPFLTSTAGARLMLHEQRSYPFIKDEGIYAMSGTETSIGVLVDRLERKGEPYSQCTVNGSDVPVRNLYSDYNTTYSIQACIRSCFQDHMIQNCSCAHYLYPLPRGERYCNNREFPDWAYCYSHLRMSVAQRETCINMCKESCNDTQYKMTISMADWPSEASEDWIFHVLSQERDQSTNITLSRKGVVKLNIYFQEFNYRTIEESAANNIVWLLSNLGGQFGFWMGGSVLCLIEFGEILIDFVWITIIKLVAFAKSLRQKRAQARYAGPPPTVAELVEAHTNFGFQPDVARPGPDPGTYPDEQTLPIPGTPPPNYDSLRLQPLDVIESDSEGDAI
T1 sequence (A0A8I3MKE6 1-646): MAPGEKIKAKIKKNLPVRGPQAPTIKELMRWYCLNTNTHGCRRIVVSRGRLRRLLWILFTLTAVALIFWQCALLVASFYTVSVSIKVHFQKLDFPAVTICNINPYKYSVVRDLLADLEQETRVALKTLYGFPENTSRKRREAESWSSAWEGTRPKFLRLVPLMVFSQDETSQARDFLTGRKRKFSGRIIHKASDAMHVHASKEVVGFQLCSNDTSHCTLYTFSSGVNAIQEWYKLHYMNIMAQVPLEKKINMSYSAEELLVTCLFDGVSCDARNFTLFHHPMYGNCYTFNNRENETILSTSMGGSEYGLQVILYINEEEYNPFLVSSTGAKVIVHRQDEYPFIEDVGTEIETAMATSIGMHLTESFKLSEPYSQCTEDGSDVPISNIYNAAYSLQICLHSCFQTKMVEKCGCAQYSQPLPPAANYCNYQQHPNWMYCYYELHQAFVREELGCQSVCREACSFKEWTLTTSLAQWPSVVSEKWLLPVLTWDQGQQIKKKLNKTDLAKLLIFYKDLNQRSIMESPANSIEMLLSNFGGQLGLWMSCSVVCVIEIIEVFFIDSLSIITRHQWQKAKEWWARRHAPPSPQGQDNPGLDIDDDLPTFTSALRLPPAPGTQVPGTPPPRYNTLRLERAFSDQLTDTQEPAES
Experiment: ENaC blocking activity, short circuit current in airway epithelial monolayers in Ussing chambers
Format: cell-based
Conditions: canine bronchial epithelia; fold potency versus amiloride
Experimental: To assess epithelial sodium channel blocker potency the compounds of the present invention involves the determination of lumenal drug inhibition of airway epithelial sodium currents measured under short circuit current (ISC) using airway epithelial monolayers mounted in Ussing chambers. Cells obtained from freshly excised human, or dog airways are seeded onto porous 0.4 micrometer Transwell® Permeable Supports (Corning Inc. Acton, Mass.), cultured at air-liquid interface (ALI) conditions in hormonally defined media, and assayed for sodium transport activity (ISC) while bathed in Krebs Bicarbonate Ringer (KBR) in Ussing chambers. All test drug additions are to the lumenal bath with approximately half-log dose additions (from 1×10^−11 M to 6×10^−5 M), and the cumulative change in ISC (decreases) recorded. All drugs are prepared in dimethyl sulfoxide as stock solutions at a concentration of approximately 1×10^−2 and stored at −20° C. […] All data from the voltage clamps are collected via a computer face and analyzed off-line.
Concentration-effect relationships for all compounds are considered and analyzed Using GraphPad Prism version 3.00 for Windows, GraphPad Software, San Diego Calif. […] IC50 values, maximal effective concentrations, are calculated and compared to the 552-02 potency as a positive control.

SMILES: CS(=O)(=O)Nc1cc([C@@H](O)CN(CCCCc2ccc(CCCCNC(=N)NC(=O)c3nc(Cl)c(N)nc3N)cc2)C[C@H](O)c2ccc(O)c(NS(C)(=O)=O)c2)ccc1O [Compound 42, N-[5-(2-{[4-(4-{4-[N′-(3,5-diamino-6-chloropyrazine-2-carbonyl)-guanidino]butyl}phenyl)butyl]-[2-(R)-hydroxy-2-(4-hydroxy-3-methanesulfonyl-aminophenyl)ethyl]amino}-1-(R)-hydroxyethyl)-2-hydroxyphenyl]methane-sulfonamide]
- ENaC blocking potency relative to Amiloride: 54 × Amiloride
